Data: patent US20030232419A1, “Molecules interacting with CASL (MICAL) polynucleotides, polypeptides, and methods of using the same” (priority 2002, published 2003)

How the values were obtained:
[1] = target: terminal "C2" portion of the Drosophila PlexA cytoplasmic domain (amino acids 1702-1945) (Drosophila); assay: yeast two-hybrid, Plexin A C2 as bait, β-galactosidase assay
[2] = target: terminal "C2" portion of the Drosophila PlexA cytoplasmic domain (amino acids 1702-1945) (Drosophila); assay: yeast interaction assay (FIG. 5B legend)

B1: clone 23 (C-terminal fragment of Drosophila MICAL from the yeast two-hybrid screen) (protein, not shown: large carriers)
chain: NSRYRKQTNTAKPKPESFSSSSPQLYIHKPHHLAAAHPSALDDQTPPPIPPLPLNYQRSDDESYANETREHKKQRAISKASRQAELKRLRIAQEIQREQEEIEVQLKDLEARGVLIEKALRGEAQNIENLDATKDNDEKLLKELLEIWRNITALKKRDEELTIRQQELQLEYRHAQLKEELNLRLSCNKLDKSSADVAAEGAILNEMLEIVAKRAALRPTASQLDLTAAGSASTSAEATGIKLTGQPHDHEESII
In the case of B1, the binding [1] is reported as “binds” and the binding [2] is reported as “binds”.

B2: clone 151 (C-terminal fragment of Drosophila MICAL from the yeast two-hybrid screen) (protein, not shown: large carriers)
chain: B1 chain
B2 was tested, and the binding [1] was “binds” and the binding [2] was “binds”.

These are yes or no findings as the source states them, for the method shown. Binding can be weak; no strength is given.
